Measured values as given in PubChem BioAssay AID2517 (National Center for Advancing Translational Sciences (NCATS), 2010).
Out of some 350,000 compounds screened, about 1,200 (0.34%) were called active. This list was built around the results that the source calls inconclusive (neither active nor inactive); the mix of calls is not that of the screen. Calls follow the shape of the dose curve; as a rule, active = well fitted inhibition curve with a large enough effect; inconclusive = small, poorly fitted or top-dose-only effect; inactive = no such curve, though single readings can be large or run the other way. A potency beside an inconclusive call is a rough fit, not a confirmed value.
Also: nearly all actives have a fitted effect of over 55% in size.
Potency is read from the fitted curve at half-maximal effect.

By UniProt entry, the sequences of proteins in these tests, tags left out.
UniProt P27695, whole entry, looked up: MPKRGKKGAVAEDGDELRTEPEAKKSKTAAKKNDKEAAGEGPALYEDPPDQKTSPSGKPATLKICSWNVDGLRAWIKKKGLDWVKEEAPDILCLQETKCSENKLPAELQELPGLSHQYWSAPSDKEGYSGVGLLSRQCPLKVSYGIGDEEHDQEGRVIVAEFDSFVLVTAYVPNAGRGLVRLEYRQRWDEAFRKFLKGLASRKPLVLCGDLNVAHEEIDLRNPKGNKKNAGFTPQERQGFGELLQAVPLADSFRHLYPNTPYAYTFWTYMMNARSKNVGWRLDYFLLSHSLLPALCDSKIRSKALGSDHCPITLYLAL

The molecules below were run against DNA repair nuclease/redox regulator APEX1 (Homo sapiens) (UniProt P27695) (assay: qHTS Assay for Inhibitors of the Human Apurinic/apyrimidinic Endonuclease 1 (APE1)). Settings: recombinant APE1, TAMRA/BHQ-2 abasic DNA cleavage fluorescence; series mostly up to 65.8 µM.
Summary of the method: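 APE1 at 0.75 nM preincubated 15 min at room temperature with compound. Reaction then started with 50 nM double-stranded THF-abasic substrate labelled with TAMRA/BHQ-2, and 525/598 nm fluorescence read kinetically. Activity taken as third-minus-first read difference, normalized to DMSO and NSC13755 controls.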
For `CCCCNC(=O)CSc1nc2ccc(N3CCOCC3)cc2c(=O)n1Cc1ccc(OC)cc1`, the Potency was inconclusive: 12.6 µM [inhibitor, partial curve, poor fit]. In the case of `COc1ccc(Oc2ncc3nc(-c4cccc(C#N)c4)c(=O)n(CCC#N)c3n2)cc1`, the Potency is reported as “inactive”. `COc1ccc(-c2csc(NC(=O)CSc3nc(SC)ns3)n2)cc1` was tested, and the Potency was “inactive”. For `O=C(/C=C/c1ccc(O)c(O)c1)c1ccc(O[C@@H]2O[C@H](CO)[C@@H](O)[C@H](O)[C@H]2O)c(O)c1O`, the Potency was inconclusive: 2.51 µM [inhibitor, full curve]. In the case of `O=C(Nc1ccc(S(=O)(=O)Nc2nccs2)cc1)c1nn(-c2ccccc2)ccc1=O`, the Potency is reported as inconclusive: 11.9 µM [inhibitor, single point]. In the case of `CCN(CC)CCCNC(=O)c1cc2c(-c3cccc(OC)c3)nn(C)c2s1`, the Potency is reported as “inactive”. With `O=C(C1CCC1)N(CCc1ccccc1)Cc1nc2ccccc2c(=O)[nH]1` the Potency was inconclusive: 7.08 µM [inhibitor, single point]. `CCCC1S/C(=N/N=C/c2ccco2)NC1=O` (stereo not drawn) was tested, and the Potency was inconclusive: 31.6 µM [inhibitor, partial curve, poor fit]. For `Cc1ccc(NC(=O)CN2C(=O)N/C(=C/c3cc(C)n(-c4ccc(C(=O)O)cc4)c3C)C2=O)cc1`, the Potency was inconclusive: 25.1 µM [inhibitor, partial curve]. In the case of `O=C(NCc1cccnc1)Nc1cccc(C(F)(F)F)c1`, the Potency is reported as inconclusive: 8.44 µM [inhibitor, single point]. `N=C1CCC(=N)c2c1c(O)c1ccccc1c2O` was tested, and the Potency was inconclusive: 31.6 µM [inhibitor, partial curve]. For `CCOC(=O)N1CCC(N2C(=O)c3ccccc3C2Nc2ccc(S(=O)(=O)N3CCOCC3)cc2)CC1` (stereo not drawn), the Potency was inconclusive: 0.282 µM [inhibitor, full curve, poor fit]. With `O=C(OCC(=O)N1CCOCC1)c1cccc(S(=O)(=O)N2CCCc3ccccc32)c1` the Potency was inconclusive: 39.8 µM [inhibitor, single point]. For `Cc1occc1-c1nnc(SCC(=O)N2CCN(c3ccccc3F)CC2)n1C`, the Potency was inconclusive: 17.8 µM [inhibitor, partial curve]. With `COc1ccc(C(=O)CSc2nccc(=O)[nH]2)cc1` the Potency was inconclusive: 0.0032 µM [inhibitor, full curve, poor fit]. In the case of `Cc1ccc(NC(=O)COc2ccc(Cl)cc2Cl)cc1S(=O)(=O)N1CCOCC1`, the Potency is reported as “inactive”. In the case of `COc1cc2nc(CSc3nc(-c4ccc(F)cc4)cs3)[nH]c(=O)c2cc1OC`, the Potency is reported as inconclusive: 0.282 µM [inhibitor, full curve]. With `O=C(N/N=C/c1cccs1)c1[nH]ncc1Br` the Potency was “inactive”. For `Cn1c(CCNC(=O)c2ccco2)nc2cc(NC(=O)c3ccco3)ccc21`, the Potency was “inactive”. For `O=C1CCC/C(=N\NC(=O)c2ccc(CSc3cccc4cccnc34)cc2)C1`, the Potency was “inactive”. In the case of `Cc1[nH]n(-c2ccccc2)c(=O)c1/C=C1/C=c2ccccc2=N1`, the Potency is reported as inconclusive: 0.1 µM [inhibitor, partial curve]. For `CC(Sc1nnc(N)s1)C(=O)Nc1nccs1` (stereo not drawn), the Potency was inconclusive: 8.44 µM [inhibitor, single point]. For `CC1(C)CC(=O)C(N=Nc2ccc(C(F)(F)F)cc2[N+](=O)[O-])=C(O)C1`, the Potency was inconclusive: 3.55 µM [inhibitor, single point]. With `CCn1c(=O)c(=O)[nH]c2cc(C(=O)NC3CCCc4ccccc43)ccc21` (stereo not drawn) the Potency was inconclusive: 28.2 µM [inhibitor, partial curve, poor fit]. For `O=c1cc(-c2ccccc2)nc(N2CCN(Cc3ccc4c(c3)OCO4)CC2)[nH]1`, the Potency was “inactive”. For `O=C(NCc1ccccn1)c1cccc(NS(=O)(=O)c2ccc(Br)cc2)c1`, the Potency was “inactive”. For `O=C(CNC1CCCC1)Nc1ccc(N2CCCCCC2)cc1`, the Potency was “inactive”. For `O=C1c2ccccc2-c2onc3ccc(NCc4ccco4)c1c23`, the Potency was inconclusive: 25.1 µM [inhibitor, partial curve]. `O=C(NNC(=O)c1cccs1)c1ccc(Cl)nc1` was tested, and the Potency was “inactive”. With `CN1CCN(/N=C/c2nc(-c3cccc([N+](=O)[O-])c3)n3ccccc23)CC1` the Potency was inconclusive: 3.55 µM [inhibitor, single point]. With `COc1ccc(NC(=O)CN2CCCCC2)cc1S(=O)(=O)N1CCCCC1` the Potency was “inactive”. `CCN1C(=O)[C@H]2[C@H]3[C@H](O)[C@H](O)C/C(=N/OCC(C)C)[C@@H]3CC[C@@H]2C1=O` was tested, and the Potency was inconclusive: 7.94 µM [inhibitor, single point]. In the case of `Cc1cc(O)c(-c2cc(C(=O)Nc3ccc(S(=O)(=O)N4CCOCC4)cc3)[nH]n2)cc1C`, the Potency is reported as inconclusive: 17.8 µM [inhibitor, single point]. In the case of `Cc1c(C(=O)N/N=C/c2ccoc2)cccc1[N+](=O)[O-]`, the Potency is reported as inconclusive: 33.6 µM [inhibitor, partial curve, poor fit]. With `CC1(c2nnc(-c3cccc(Cl)c3)o2)CC(c2ccccc2Br)=NO1` (stereo not drawn) the Potency was “inactive”. In the case of `Cc1cc(C)n(CCC(=O)N/N=C/c2ccccc2O)n1`, the Potency is reported as inconclusive: 39.8 µM [inhibitor, single point]. For `Cc1cc(C)n(CC(=O)N/N=C/c2c[nH]c3ccccc23)n1`, the Potency was inconclusive: 7.08 µM [inhibitor, single point]. With `COc1cc2c(cc1OC)-c1cc(Nc3ccc(C(=O)O)cc3)nc(=O)n1CC2` the Potency was inconclusive: 21.2 µM [inhibitor, single point]. `CC(C)(NC(=O)c1cc(Cl)c2ccccc2c1O)C(=O)O` was tested, and the Potency was inconclusive: 5.01 µM [inhibitor, single point]. With `CCN(CC)S(=O)(=O)c1ccc(N/N=C/c2ccccc2OCC(=O)O)c([N+](=O)[O-])c1` the Potency was inconclusive: 39.8 µM [inhibitor, single point]. In the case of `O=C(CSc1nc2ccccc2n1CCc1ccccc1)c1ccc(O)c(O)c1`, the Potency is reported as active: 0.891 µM. With `CCCc1cc(C(=O)N(C2CCCCC2)C2CCCCC2)no1` the Potency was inconclusive: 39.8 µM [inhibitor, single point]. `Cc1ccc(S(=O)(=O)NN2C(=O)c3ccccc3NC2c2ccco2)cc1` (stereo not drawn) was tested, and the Potency was inconclusive: 0.004 µM [inhibitor, full curve, poor fit].
